Results as given in PMC11210128.
These are yes or no findings as the source states them, for the method shown. Binding seen in cells or lysates may run through a third protein. Some entries that bind do so weakly or less than the wild type.

Biological target: T1, Ubiquitin-specific protease 38 (rat (endogenous in H9c2)) (UniProt D3Z8K5)
T1 sequence: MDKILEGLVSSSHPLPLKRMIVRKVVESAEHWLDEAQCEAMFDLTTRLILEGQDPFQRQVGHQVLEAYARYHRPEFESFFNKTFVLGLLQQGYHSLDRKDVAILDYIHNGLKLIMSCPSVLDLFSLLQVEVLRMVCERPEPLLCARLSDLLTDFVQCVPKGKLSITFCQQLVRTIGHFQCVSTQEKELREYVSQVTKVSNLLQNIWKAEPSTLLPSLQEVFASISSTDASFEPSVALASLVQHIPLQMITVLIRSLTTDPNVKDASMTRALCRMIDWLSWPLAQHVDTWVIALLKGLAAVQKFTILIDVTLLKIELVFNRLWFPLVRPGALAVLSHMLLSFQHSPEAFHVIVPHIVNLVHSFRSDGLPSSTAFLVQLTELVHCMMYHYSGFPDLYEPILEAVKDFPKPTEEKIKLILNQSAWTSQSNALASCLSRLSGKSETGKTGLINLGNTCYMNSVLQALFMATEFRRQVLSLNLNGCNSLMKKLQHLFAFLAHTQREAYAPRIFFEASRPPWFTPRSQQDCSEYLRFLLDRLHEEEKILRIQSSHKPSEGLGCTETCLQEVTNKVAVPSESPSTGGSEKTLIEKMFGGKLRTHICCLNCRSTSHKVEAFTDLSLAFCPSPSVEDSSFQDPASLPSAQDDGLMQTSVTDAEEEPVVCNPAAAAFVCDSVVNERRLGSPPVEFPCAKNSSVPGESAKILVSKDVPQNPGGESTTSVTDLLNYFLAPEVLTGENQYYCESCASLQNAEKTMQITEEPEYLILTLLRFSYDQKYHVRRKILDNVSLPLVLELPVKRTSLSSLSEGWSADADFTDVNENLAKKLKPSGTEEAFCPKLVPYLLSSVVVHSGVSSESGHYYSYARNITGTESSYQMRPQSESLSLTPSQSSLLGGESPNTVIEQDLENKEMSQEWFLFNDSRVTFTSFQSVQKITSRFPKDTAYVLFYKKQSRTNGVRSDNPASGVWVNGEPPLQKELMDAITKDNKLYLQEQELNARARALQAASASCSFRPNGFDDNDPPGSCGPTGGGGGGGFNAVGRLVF
Assay: co-IP; endogenous proteins in H9c2 cell lysate (IP lysis buffer with PMSF and a cocktail); anti-USP38, anti-TBK1 or anti-IgG overnight, magnetic beads 1 h at room temperature, Western blotting; repeated three times

B1: TBK1 (protein, UniProt D4A7D3 1-729)
chain: MQSTSNHLWLLSDILGQGATANVFRGRHKKTGDLYAVKVFNNISFLRPVDVQMREFEVLKKLNHKNIVKLFAIEEETTTRHKVLIMEFCPCGSLYTVLEEPSNAYGLPESEFLIVLRDVVGGMNHLRENGIVHRDIKPGNIMRVIGEDGQSVYKLTDFGAARELEDDEQFVSLYGTEEYLHPDMYERAVLRKDHQKKYGATVDLWSVGVTFYHAATGSLPFRPFEGPRRNKEVMYKIITGKPSGAISGVQKAENGPIDWSGDMPLSCSLSQGLQALLTPVLANILEADQEKCWGFDQFFAETSDVLHRMVIHVFSLQHMTALKIYIHSYNTAAVFHELVYKQTKIISSNQELIYEGRRLVLELGRLAQHFPKTTEENPIFVTSREQLNSIGLRYEKISLPKIHPRYDLDGDASMAKAVTGVVCYACRTAGTLLLYQELMRKGVRWLIELVKDDYNETVHKKTEVVITLDFCIRNIEKTVKVYEKLMKVSLDAAELGEISDIHTKLLRLSSSQGTIESSLQDINSRLSPGGSLADTWAHQEGTHPRDRNVEKLQVLLNCITEIYYQFKKDKAERRLAYNEEQIHKFDKQKLYYHATKAMTHFTDECVRKYEAFKDTSEEWMRKMLHLRKQLLSLTNQCFDIEEEVSKYQDYTNELQETLPQKMLAASSGIKHTVAPIYPSSNTLVEMTLGMKKLKEEMEGVVKELAENNHILERFGSLTMDGGLRNVDCL
  binding: binds
